Results are given in words; binding and its absence hold for the method and conditions named. Binding seen in cells or lysates may run through a third protein. Some entries that bind do so weakly or less than the wild type. Sequences can lack the tags named with a protein.
How the values were obtained:
Assay in all cases: co-IP; purified GFP-Sgo1 fragments held on anti-GFP-coupled beads, incubated with sgo1Δ yeast extract (BRN1-6HA); 25 mM HEPES pH 7.5, 2 mM MgCl2, 15% glycerol, 0.1% NP-40, 150 mM KCl; immunoblot against Brn1-6HA; only the target purified
[1] = biological target: T1, GFP-Sgo1 (130–190) (S. cerevisiae) (UniProt Q08490)
T1 sequence: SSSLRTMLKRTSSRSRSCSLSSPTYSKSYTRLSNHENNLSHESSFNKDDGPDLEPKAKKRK

The chains behind the UniProt entries cited, without tags or fusion partners. Where a name states a change or a piece, a line headed by the entry shows the natural chain unless it says otherwise.
UniProt P38170: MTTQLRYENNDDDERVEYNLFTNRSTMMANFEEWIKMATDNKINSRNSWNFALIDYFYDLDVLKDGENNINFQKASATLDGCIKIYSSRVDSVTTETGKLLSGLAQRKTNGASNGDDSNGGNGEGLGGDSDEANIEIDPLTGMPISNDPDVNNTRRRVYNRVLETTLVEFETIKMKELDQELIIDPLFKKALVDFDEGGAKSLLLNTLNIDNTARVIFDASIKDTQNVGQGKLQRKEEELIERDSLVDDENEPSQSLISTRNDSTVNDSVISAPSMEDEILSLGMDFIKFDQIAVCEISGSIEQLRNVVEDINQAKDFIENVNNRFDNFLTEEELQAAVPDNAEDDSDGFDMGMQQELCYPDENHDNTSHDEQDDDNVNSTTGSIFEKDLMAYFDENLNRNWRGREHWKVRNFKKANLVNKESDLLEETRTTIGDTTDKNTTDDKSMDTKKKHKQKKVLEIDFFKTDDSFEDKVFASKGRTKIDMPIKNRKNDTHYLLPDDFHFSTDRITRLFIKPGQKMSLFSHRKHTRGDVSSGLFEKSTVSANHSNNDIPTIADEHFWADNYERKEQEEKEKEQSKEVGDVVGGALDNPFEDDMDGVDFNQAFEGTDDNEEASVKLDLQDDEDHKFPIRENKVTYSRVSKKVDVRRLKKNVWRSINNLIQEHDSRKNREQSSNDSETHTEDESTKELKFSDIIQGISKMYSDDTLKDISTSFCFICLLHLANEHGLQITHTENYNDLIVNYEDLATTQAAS

[2] = biological target: T2, GFP-Sgo1 (1–130) (S. cerevisiae) (UniProt Q08490)
T2 sequence: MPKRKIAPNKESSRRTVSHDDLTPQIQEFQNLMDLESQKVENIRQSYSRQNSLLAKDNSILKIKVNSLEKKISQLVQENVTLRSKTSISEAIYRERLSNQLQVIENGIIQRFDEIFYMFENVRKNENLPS

[3] = biological target: T3, GFP-Sgo1 (350–590) (S. cerevisiae) (UniProt Q08490)
T3 sequence: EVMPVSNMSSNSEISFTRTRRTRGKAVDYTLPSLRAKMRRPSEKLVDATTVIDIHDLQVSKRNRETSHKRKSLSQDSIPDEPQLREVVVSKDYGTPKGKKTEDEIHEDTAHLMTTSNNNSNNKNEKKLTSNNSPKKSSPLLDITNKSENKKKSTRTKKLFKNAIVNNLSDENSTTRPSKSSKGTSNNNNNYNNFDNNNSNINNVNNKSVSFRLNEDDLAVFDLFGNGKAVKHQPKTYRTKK

- binding [1]: no binding
- binding [2]: binds
- binding [3]: binds
Substance: condensin (Brn1-6HA) from sgo1Δ yeast extract (from UniProt P38170 1-754; P38989 1-1170; Q12267 1-1418; Q06680 1-1035; Q06156 1-1176) (complex)
